Reference: US20070009544A1, “Anti-allergic complex molecules” (priority 1999, published 2007)

Tested on: abdominal skin of C.R rats
Assay: Rat skin test: intradermal injection of peptide, then intradermal compound 48/80 or vehicle, wheal area
Type: in vivo
Settings: 0.5 hour incubation; Fenistil Gel 100 mg t.a., Ceterizine 0.01 mg/ml i.d., Cromoglycate 20 mg/ml i.d., Peptide 2 10 mg/ml i.d.; no treatment 115.5 ± 30.4
Protocol: The hair of the abdominal area of C.R rats was carefully removed with an electric clipper and a depilatory cream. In each animal the abdominal area was divided to six equal zones that were marked by pen. Each zone was either subjected to peptide treatment or served as a control. In the first set of experiments, the peptide was topically applied as follows: 36 μl of peptide solution at the indicated concentration (dissolved in 72% DMSO in saline) was applied on desired abdominal area. […]
Skin tests were performed 0.5, 1 or 2 hours following application of the peptide. […] The allergic response was monitored by outlining with a marker the wheals which developed in response to allergen or saline treatment.
To quantitate the skin test results, the marker signs were transferred onto paper with scotch tape. The areas of the wheals were outlined and calculated by a computerized planimeter (Hewlett-Packard), as previously described (Sussman et al., 1982).
Tables 10-16 presents the mean areas of the wheals, which developed in response to intradermal injection of each of the tested peptides, followed by either compound 48/80 or DDW injection applied after 0.5 or 1 hour. […] Mean wheal areas were calculated for each treatment and the significance of the results was determined using student's T-test. […]

O=C(O)COCCN1CCN(C(c2ccccc2)c2ccc(Cl)cc2)CC1 (stereo not shown) [Ceterizine, reference compound]
Mean wheal size, compound 48/80-induced cutaneous reaction: 86.6 ± 23.4 mm^2
